Experimental data from PubChem BioAssay (NCATS).
Several values for one entry are separate records, joined by “and”; a condition that tells them apart may be missing. Equal values may be shown once. Inconclusive results, whose numbers are uncertain, are shown with a selection of clear calls. Potencies beside an inconclusive call are fits to weak or partial responses and may not hold up. Activity calls are given as the source filed them. The call rests on the fitted dose curve; in most records, active means well fitted curve in the direction sought with a large enough effect; inconclusive means small, poorly fitted or top-dose-only effect, or another doubt; inactive means no such curve, though single readings can be large; an effect the other way counts as inactive or inconclusive.

Assay: Identifying Small Molecule Inhibitors of Pancreatic Cancer Stem Cells (Panc1, Adherent) (AID 1259362);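 on viability, % of control: compound exposure lasted 48 h before the viability read; plate controls were DMSO-treated cells for no effect and cell-free media wells for full effect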
Details: Potency: viability unless noted; viability, % of control: at 46.1 µM (top of the series) unless noted
Outline: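 Adherent (2D) versus sphere (3D) formats; spheres generated 14 d in SCM beforehand. Compound transferred by pin tool after 4 h, 48 h incubation, CellTiter-Glo endpoint.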
Potency means the concentration at half of the fitted maximal effect.

Q: For `CS(=O)(=O)Oc1ccc2c(NC(N)=O)c(C(=O)c3ccc(Cl)cc3Cl)oc2c1`, which viability, % of control is on record?
A: inconclusive: 104%

Q: With `Fc1ccc(Cl)cc1-c1nc(Nc2ccncc2)c2nccnc2n1` as the compound, how does the Potency read?
A: inactive

Q: For `C=C1C(=CC=C2CCCC3(C)[C@@H]([C@H](C)C=CC=CC(O)(CC)CC)CC[C@@H]23)C[C@@H](O)C[C@@H]1O` (some centres not stated), which Potency is on record?
A: inconclusive: 33.2 µM [cytotoxic, partial curve, poor fit]

Q: Which Potency does the source give for `NC(=O)C1CCCc2c1[nH]c1ccc(Cl)cc21` (configuration not stated) here?
A: inactive

Assay: P-glycoprotein substrates identified in KB-3-1 adenocarcinoma cell line, qHTS therapeutic library screen (AID 1346986);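 further: potency is for cytotoxicity meaning loss of cell viability; nearly all actives have a fitted effect of over 60% in size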
Details: KB-3-1 parental cells viability, CellTiter-Glo, 72 h; series mostly up to 44.5 µM
Outline: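 Viability by CellTiter-Glo after 72 h compound exposure at 37 degree C, 5% CO2. Cytotoxic call: curve class -1.1 to -2.4, maximum response >50%, AC50 < 10 uM, compared across KB-3-1 and P-gp-overexpressing KB-8-5-11.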

Q: For `CN(C)CCCNC(=O)c1ccc(-c2cc(O)c3ncccc3c2)cc1`, which Potency is on record?
A: active: 18.4 µM

Q: For `CN1CCN(c2ccc3nc(-c4c(N)c5c(F)cccc5[nH]c4=O)[nH]c3c2)CC1`, which Potency is on record?
A: active: 5.17 µM

Q: With `Cc1ccc(NC(=O)c2cccc(C(C)(C)C#N)c2)cc1Nc1ccc2ncn(C)c(=O)c2c1` as the compound, how does the Potency read?
A: inconclusive: 29.1 µM [inhibitor, single point]

Q: Which Potency does the source give for `Cc1ccc(Nc2nccc(N(C)c3ccc4c(C)n(C)nc4c3)n2)cc1S(N)(=O)=O` here?
A: inconclusive: 7.31 µM [inhibitor, partial curve, poor fit]

Q: For `O=C(Nc1cccc(Cl)c1)Nc1ncc(CCNc2ncnc3ccsc23)s1`, which Potency is on record?
A: inconclusive: 0.291 µM [inhibitor, partial curve, poor fit]

Q: For `C[C@]1(CO)CN(c2cc(C(=O)Nc3ccc4c(c3)-c3c(c(C(N)=O)nn3-c3ccc(F)cc3)CC4)c(Cl)cn2)C[C@@]1(C)CO`, which Potency is on record?
A: active: 5.8 µM

Q: With `O=c1ncn2nc(Sc3ccc(F)cc3F)ccc2c1-c1c(Cl)cccc1Cl` as the compound, how does the Potency read?
A: inconclusive: 29.1 µM [inhibitor, single point]

Q: With `CN(C)C(=O)c1ccc(S(=O)(=O)c2ccc(NC(=O)[C@@](C)(O)C(F)(F)F)c(Cl)c2)cc1` as the compound, how does the Potency read?
A: inconclusive: 4.61 µM [inhibitor, partial curve]

Q: For `C=CC(=O)Nc1cc2c(Nc3ccc(F)c(Cl)c3)ncnc2cc1OCCCN1CCOCC1`, which Potency is on record?
A: inconclusive: 16.4 µM [inhibitor, single point]

Assay: P-glycoprotein substrates identified in KB-8-5-11 adenocarcinoma cell line, qHTS therapeutic library screen (AID 1346987); further: nearly all actives have a fitted effect of over 65% in size
Details: KB-8-5-11 (P-gp overexpressing) viability, CellTiter-Glo, 72 h; series mostly up to 44.5 µM
Outline: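 In this qHTS, P-gp-rich KB-8-5-11 cells received library compounds across a concentration range. Viability was quantified by luminescence after 72 h at 37 degree C.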

Q: With `CN1CCN(c2ccc3nc(-c4c(N)c5c(F)cccc5[nH]c4=O)[nH]c3c2)CC1` as the compound, how does the Potency read?
A: active: 2.64 µM and active: 8.2 µM

Q: For `Cc1ccc(NC(=O)c2cccc(C(C)(C)C#N)c2)cc1Nc1ccc2ncn(C)c(=O)c2c1`, which Potency is on record?
A: active: 16.6 µM and inconclusive: 29.1 µM [inhibitor, single point]

Q: With `Cc1ccc(Nc2nccc(N(C)c3ccc4c(C)n(C)nc4c3)n2)cc1S(N)(=O)=O` as the compound, how does the Potency read?
A: inconclusive: 23.1 µM [inhibitor, single point] and inconclusive: 20.6 µM [inhibitor, single point]

Q: For `O=C(Nc1cccc(Cl)c1)Nc1ncc(CCNc2ncnc3ccsc23)s1`, which Potency is on record?
A: inconclusive: 1.05 µM [inhibitor, full curve] and active: 1.16 µM

Q: Which Potency does the source give for `O=c1ncn2nc(Sc3ccc(F)cc3F)ccc2c1-c1c(Cl)cccc1Cl` here?
A: inconclusive: 29.1 µM [inhibitor, single point]

Q: With `C=CC(=O)Nc1cc2c(Nc3ccc(F)c(Cl)c3)ncnc2cc1OCCCN1CCOCC1` as the compound, how does the Potency read?
A: active: 18.4 µM and inconclusive: 29.1 µM [inhibitor, single point]

Assay: NS1 protein of Zika virus - qHTS assay to identify small molecule inhibitors in human HEK 293 cells (AID 1347053); further: nearly all actives have a fitted effect of over 55% in size
Details: HEK293 ZIKV MR766 infection, NS1 TR-FRET, 24 h; series mostly up to 46.1 µM
Outline: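 In this cell-based screen, HEK 293 cultures received compound for one hour before Zika MR766 at MOI = 0.5. NS1 was quantified 24 hours later by TR-FRET, normalized to virus-free wells and infected wells.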

Q: For `CN1CCN(c2ccc3nc(-c4c(N)c5c(F)cccc5[nH]c4=O)[nH]c3c2)CC1`, which Potency is on record?
A: inconclusive: 10.5 µM [inhibitor, full curve]

Q: Which Potency does the source give for `Cc1ccc(Nc2nccc(N(C)c3ccc4c(C)n(C)nc4c3)n2)cc1S(N)(=O)=O` here?
A: inconclusive: 33.2 µM [inhibitor, single point]

Q: For `C=CC(=O)Nc1cc2c(Nc3ccc(F)c(Cl)c3)ncnc2cc1OCCCN1CCOCC1`, which Potency is on record?
A: inconclusive: 37.2 µM [inhibitor, single point]
